{"source": "paper PMC12754617", "about": "“Ruthenium-enhanced curcumin derivatives target tumor growth and cancer-related inflammation in head and neck cancer models” (Frontiers in Oncology, 2025)", "assay_in_all_cases": "MTT viability assay", "format_in_all_cases": "cell-based, human", "key": {"[1]": {"tested_on": "CAL 27", "conditions": "IC50 HGF / IC50 CAL 27, 24 h", "method": "(§1) A colorimetric 3-(4,5-dimethylthiazolyl)-2,5-diphenyltetrazolium bromide (MTT) cell metabolic activity assay was used to assess the cytotoxicity of complexes 3 and 4. The cells (described above) were cultured under standard conditions. Cells were seeded in 96-well plates at a density of 10,000 cells per well (200 μL) and allowed to grow for 24 h. The medium was then replaced with medium containing complex 3 or 4 at a concentration ranging from 0 to 200 μM, and the cells were incubated for an additional 24, 48, and 72 h. Subsequently, the medium was replaced with MTT solution, consisting of yellow tetrazolium dye 3-(4,5-dimethylthiazol-2-yl)-2,5-diphenyltetrazolium bromide (Sigma-Aldrich, Merck, Germany), and incubated for 2 h at 37°C. The dye was then removed, and the resulting purple formazan formed in viable cells was dissolved in DMSO, followed by shaking for 30 s. Absorbance was measured at 570 nm using an […] 200 PRO microplate reader (TECAN, Männedorf, Switzerland). All experiments were performed in quadruplicate and repeated three times.\n(§2) The cell inhibitory concentration (IC) was calculated using the equation IC = (Acomplex3/complex4 well/mean Acontrol wells) × 100%. The half-maximal inhibitory concentration (IC50) was determined from dose–response curves using GraphPad Prism 10 (GraphPad Software Inc., La Jolla, CA, USA). The selectivity index toward cancer cells was calculated as a ratio of the average IC50 value for HGF to the IC50 value for the corresponding cancer cell line."}, "[2]": {"tested_on": "Detroit 562", "conditions": "IC50 HGF / IC50 Detroit 562, 24 h", "method": "as §1, §2"}, "[3]": {"tested_on": "FaDu", "conditions": "IC50 HGF / IC50 FaDu", "method": "as §1, §2"}, "[4]": {"tested_on": "Hep-2", "conditions": "IC50 HGF / IC50 Hep-2, 24 h", "method": "as §1, §2"}, "[5]": {"tested_on": "KB", "conditions": "IC50 HGF / IC50 KB", "method": "as §1, §2"}, "[6]": {"tested_on": "SCC-9", "conditions": "IC50 HGF / IC50 SCC-9, 24 h", "method": "as §1, §2"}, "[7]": {"tested_on": "TR146", "conditions": "IC50 HGF / IC50 TR146, 24 h", "method": "as §1, §2"}}, "data": [{"smiles": "Cc1ccc(C(C)C)cc1.Cc1ccc(C(C)C)cc1.O=C1C(=Cc2ccnc3ccccc23)COCC1=Cc1ccnc2ccccc12.[Cl][Ru][Cl].[Cl][Ru][Cl]", "note": "[Complex 3]", "values": [{"measurement": "Selectivity index 24h", "setting": "[1]", "result": 0.92}, {"measurement": "Selectivity index 24h", "setting": "[2]", "result": 1.68}, {"measurement": "Selectivity index 24h", "setting": "[3]", "result": 2.40}, {"measurement": "Selectivity index 24h", "setting": "[4]", "result": 1.63}, {"measurement": "Selectivity index 24h", "setting": "[5]", "result": 1.45}, {"measurement": "Selectivity index 24h", "setting": "[6]", "result": 4.41}, {"measurement": "Selectivity index 24h", "setting": "[7]", "result": 1.05}]}]}
